Drawing on publication PMC9468604, this text covers binding for one molecule.

These are yes or no findings as the source states them, for the method shown. Some results given as binding are weak or reduced against the parent protein; the word gives no strength. Tags and fused reporters may be left off the sequences shown.

For the assay, the target named is T1, PATZ2 BTB domain (NLS-tagGFP-BTB or tagRFP-BTB fusion) (human), O43167.
T1 chain: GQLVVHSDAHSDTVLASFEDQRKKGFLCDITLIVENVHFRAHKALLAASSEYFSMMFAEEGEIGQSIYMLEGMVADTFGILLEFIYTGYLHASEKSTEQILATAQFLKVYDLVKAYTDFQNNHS
Briefly: two-hybrid; fluorescent two-hybrid (F2H) in live BHK-1 cells with a genomic LacO array; the tagGFP-BTB fusion is held at the LacO focus by GBP-LacI, a co-localised focus of the tagRFP-BTB fusion is scored by fluorescence microscopy 24 h after transfection; colocalization = percentage of GFP foci-positive cells also positive for RFP foci. The following applies: remark: other sources report otherwise.

B1: PATZ2 BTB domain (NLS-tagGFP-BTB or tagRFP-BTB fusion), O43167 10-133 (domain or fragment)
chain: T1 chain
B1: the binding entry is recorded as “binds”.
